# Results deposited as PubChem BioAssay AID1259308 (NCATS, 2017).
# Aim: 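Knock-downs that increase output of a recombinant reporter protein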 (primary screen)
# System: human HEK293 embryonic kidney cells stably expressing firefly luciferase (HEK-CMV-Luc2-Hygro)
# Reagents: single siRNA against human genes, 0.8 pmol siRNA per well
# Duration: 72 h
# Read-out: 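Reporter luminescence and viable-cell signal on separate replicate plates, given as percent of non-targeting control and median/MAD z-scores, plus per-cell luciferase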
# Reading the numbers: total luciferase, z-score and total luciferase, % of control: higher = more reporter protein produced
# Active means: 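Active when the median/MAD z-score for overall luciferase is greater than 3; a gene was taken forward for validation with new siRNAs if at least two of its three siRNAs passed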
# Meaning of the calls: active = raised luciferase; inactive = no rise
# The deposit covers about 59,000 reagents; this is a part drawn at random. About 1,510 of all reagents (2.6%) count as active. 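Calls use total luciferase alone and ignore viability, so some active siRNAs may act by altering cell number.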 Entries without a mark were called inactive. Not all columns of the deposit are shown. Reagent sequences are not shown.
Gene,PubChem SID,"total luciferase, z-score","total luciferase, % of control"
ARRB2 (arrestin beta 2),SID160720285,3 (active),142
ARRB2 (arrestin beta 2),SID160720296,1.38,109
ARRB2 (arrestin beta 2),SID160720307,-0.829,65.4
AGPAT2 (1-acylglycerol-3-phosphate O-acyltransferase 2),SID160728718,-0.676,68.4
AGPAT2 (1-acylglycerol-3-phosphate O-acyltransferase 2),SID160728719,0.364,89.1
AGPAT2 (1-acylglycerol-3-phosphate O-acyltransferase 2),SID160730449,-1.13,59.5
LINC02693 (long independently transcribed non-coding RNA 2693),SID160764183,-0.627,69.4
LINC02693 (long independently transcribed non-coding RNA 2693),SID160764184,-0.287,76.2
LINC02693 (long independently transcribed non-coding RNA 2693),SID160764185,-0.152,78.9
ACSM4 (acyl-CoA synthetase medium chain family member 4),SID160733099,1.88,119
ACSM4 (acyl-CoA synthetase medium chain family member 4),SID160764545,-0.565,70.7
ACSM4 (acyl-CoA synthetase medium chain family member 4),SID160764547,-0.751,66.9
CELSR2 (cadherin EGF LAG seven-pass G-type receptor 2),SID160758774,0.444,90.7
CELSR2 (cadherin EGF LAG seven-pass G-type receptor 2),SID160758785,1.62,114
CELSR2 (cadherin EGF LAG seven-pass G-type receptor 2),SID160758795,-0.131,79.3
MIR9-3HG (MIR9-3 host gene),SID160732809,-1.93,43.4
MIR9-3HG (MIR9-3 host gene),SID160762213,0.326,88.4
MIR9-3HG (MIR9-3 host gene),SID160762214,-1.59,50.2
KIF24 (kinesin family member 24),SID160764940,-0.825,65.5
KIF24 (kinesin family member 24),SID160764941,-0.636,69.2
KIF24 (kinesin family member 24),SID160764942,-0.398,74
TRIM16L (tripartite motif containing 16 like (pseudogene)),SID160758479,-1.43,53.5
TRIM16L (tripartite motif containing 16 like (pseudogene)),SID160758480,-1.46,52.9
TRIM16L (tripartite motif containing 16 like (pseudogene)),SID160758482,-0.0621,80.7
EGLN3 (egl-9 family hypoxia inducible factor 3),SID160730525,-0.712,67.7
EGLN3 (egl-9 family hypoxia inducible factor 3),SID160754684,-0.471,72.5
EGLN3 (egl-9 family hypoxia inducible factor 3),SID160754685,-0.126,79.4
ARHGAP31 (Rho GTPase activating protein 31),SID160746157,-0.477,72.4
ARHGAP31 (Rho GTPase activating protein 31),SID160746158,0.655,94.9
ARHGAP31 (Rho GTPase activating protein 31),SID160746159,-1.91,43.8
TAS2R7 (taste 2 receptor member 7),SID160739745,-1.31,55.8
TAS2R7 (taste 2 receptor member 7),SID160739746,0.185,85.6
TAS2R7 (taste 2 receptor member 7),SID160739747,-0.409,73.8
MYT1 (myelin transcription factor 1),SID160731266,-0.821,65.5
MYT1 (myelin transcription factor 1),SID160777747,-0.3,75.9
MYT1 (myelin transcription factor 1),SID160777748,-0.285,76.2
TMEM45A (transmembrane protein 45A),SID160742881,0.23,86.5
TMEM45A (transmembrane protein 45A),SID160742882,1.91,120
TMEM45A (transmembrane protein 45A),SID160742883,0.173,85.3
C10orf67 (chromosome 10 open reading frame 67),SID160762486,1.27,107
C10orf67 (chromosome 10 open reading frame 67),SID160762487,3.29 (active),147
C10orf67 (chromosome 10 open reading frame 67),SID160762488,0.187,85.6
C10orf67 (chromosome 10 open reading frame 67),SID160765616,0.772,97.2
C10orf67 (chromosome 10 open reading frame 67),SID160765618,-1.72,47.6
C10orf67 (chromosome 10 open reading frame 67),SID160765619,0.305,87.9
CASZ1 (castor zinc finger 1),SID160742441,0.884,99.5
CASZ1 (castor zinc finger 1),SID160742442,-0.65,69
CASZ1 (castor zinc finger 1),SID160742443,1.44,110
TPH2 (tryptophan hydroxylase 2),SID160755888,0.071,83.3
TPH2 (tryptophan hydroxylase 2),SID160755889,-0.482,72.3
TPH2 (tryptophan hydroxylase 2),SID160755890,3.4 (active),149
RASSF2 (Ras association domain family member 2),SID160723037,-0.276,76.4
RASSF2 (Ras association domain family member 2),SID160723038,0.913,100
RASSF2 (Ras association domain family member 2),SID160732221,1.06,103
"PPM1L (protein phosphatase, Mg2+/Mn2+ dependent 1L)",SID160759148,0.0143,82.2
"PPM1L (protein phosphatase, Mg2+/Mn2+ dependent 1L)",SID160759149,-1.67,48.8
"PPM1L (protein phosphatase, Mg2+/Mn2+ dependent 1L)",SID160759151,-0.72,67.6

Copied from the list:
CASZ1 (castor zinc finger 1) [SID160742442], total luciferase, % of control = 69
Result for LINC02693 (long independently transcribed non-coding RNA 2693) [SID160764185] under “total luciferase, z-score”: -0.152
TAS2R7 (taste 2 receptor member 7) [SID160739746], total luciferase, % of control: 85.6
Under “total luciferase, % of control”, RASSF2 (Ras association domain family member 2) [SID160732221] has 103
MYT1 (myelin transcription factor 1) [SID160777747], total luciferase, % of control → 75.9
Value for ACSM4 (acyl-CoA synthetase medium chain family member 4) [SID160764545] in “total luciferase, z-score”: -0.565
